PubChem BioAssay AID493014 (National Center for Advancing Translational Sciences (NCATS), 2011)
The whole screen tested about 340,000 compounds, of which about 170 (0.05%) were called active. Inconclusive means that the source gave no clear call. Such entries were picked first, then a sample of the others. The call rests on the fitted dose curve; in most records, active means well fitted inhibition curve with a large enough effect in the signal ratio, with a control signal flat (not every such curve was filed as active); inconclusive means small, poorly fitted or top-dose-only effect, or effect the other way, or a change in a side signal; inactive means flat fitted curve, though single readings scatter; the % refers to the signal ratio. Potencies beside an inconclusive call are fits to weak or partial responses and may not hold up.
Potency means the concentration at half of the fitted maximal effect.

Experiment: qHTS Assay to Find Inhibitors of Chronic Active B-Cell Receptor Signaling;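 on activity change, negative = inhibition: plate controls were basal doxycycline-induced cells for no effect and cells given 10 µM MG132 for full effect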
Details: ABC-DLBCL IkBa-CBG/CBR reporter, luminescence ratio (green luciferase fused to IkBa over red control in TMD8 lymphoma cells), 4 h; activity change, negative = inhibition: at 46.1 µM (top of the series)
How it was run: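 Concentration-response series (up to 46 uM) were applied to TMD8 dual-reporter cells for 4 h at 37C with doxycycline. Green/red ratio, after filter-overlap correction, defined %Activity; red signal alone was normalised to basal cells and zero luminescence.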
For `CC(=O)Nc1cccc(NC(=O)CCn2c(=O)sc3ccccc32)c1`, the Potency was inconclusive: 20.6 µM [falling, partial curve, poor fit]. In the case of `Cc1cc(C)c2c(-n3cccc3)nn(CC#N)c2n1`, the activity change, negative = inhibition is reported as inconclusive: -0.621%. For `COc1cc2c(cc1OC)CN(c1ccc3ccccc3n1)CC2`, the Potency was inconclusive: 25.1 µM [falling, partial curve, poor fit]. With `Cc1ccc(N/N=C(\C#N)C(=O)c2ccsc2)cc1` the activity change, negative = inhibition was inconclusive: -27.8%. In the case of `O=C(/C=C/Nc1ccc(F)c(F)c1)c1cccs1`, the activity change, negative = inhibition is reported as inconclusive: 479%. With `COc1ccc(C(=O)CSc2nnc(CN3CCCCC3)n2-c2ccc(F)cc2)cc1OC` the activity change, negative = inhibition was inconclusive: -0.234%. For `COc1ccc(NC(=O)C(=O)NCC(c2ccc3c(c2)OCO3)N2CCN(C)CC2)cc1` (stereo not drawn), the “activity change, negative = inhibition” value was inactive: -9.48%. For `Cc1ccnc(NC(=O)CN(C)S(=O)(=O)c2cccc3nsnc23)c1`, the “activity change, negative = inhibition” value was inactive: 2.03%. With `Cc1csc(C(C#N)C(=O)c2ccncc2)n1` (stereo not drawn) the Potency was inconclusive: 35.5 µM [falling, single point]. With `CCN1C(=O)/C(=C\c2ccc(-c3cccc(C(=O)OC)c3)o2)SC1=Nc1ccc(C(=O)O)cc1` the “activity change, negative = inhibition” value was inactive: 1.03%. With `N#CC1=C(N)Oc2cc(Nc3ccccc3)ccc2C1c1ccncc1` (stereo not drawn) the activity change, negative = inhibition was inconclusive: -0.472%. For `Nc1ncnc2nc(SCCN3CCCCC3)[nH]c12`, the activity change, negative = inhibition was inconclusive: 11.1%. For `Cc1cc(C(=O)Nc2ccccc2)oc1C`, the Potency was inconclusive: 31.6 µM [falling, single point]. For `O=C(CCNS(=O)(=O)c1ccc(Br)cc1)NCc1ccco1`, the “activity change, negative = inhibition” value was inactive: -4.23%. For `COc1ccc(/C=C(\C#N)c2cc(OC)c(OC)cc2[N+](=O)[O-])cc1`, the activity change, negative = inhibition was inconclusive: 3.06%. In the case of `N#CCCCSc1ncccc1-c1nc2ccccc2[nH]1`, the Potency is reported as inconclusive: 12.6 µM [falling, partial curve]. In the case of `CCOC(=O)/C(C#N)=C/c1c(OCC)n(CC)c2ccccc12`, the Potency is reported as inconclusive: 20.6 µM [activator, partial curve, poor fit]. In the case of `CCC(C)Nc1nc(Cl)nc(NCCOc2ccccc2)n1` (stereo not drawn), the Potency is reported as inconclusive: 5.17 µM [rising, partial curve, poor fit]. With `CCOC(=O)C1=C(N)Oc2c(oc(CO)cc2=O)C1c1ccc(F)c(F)c1` (stereo not drawn) the Potency was inconclusive: 10 µM [falling, partial curve, poor fit]. In the case of `CCOc1ccc(-c2nc(N)ncc2Oc2ccccc2Br)c(O)c1`, the Potency is reported as inconclusive: 16.4 µM [falling, partial curve, poor fit]. With `CN1C(=O)c2ccccc2Sc2ccc(NC(=O)COc3ccccc3)cc21` the Potency was inconclusive: 35.5 µM [falling, single point]. With `COCCNC(=O)c1ccc(C)c(S(=O)(=O)Nc2ccc(C)cc2)c1` the activity change, negative = inhibition was inconclusive: 11.6%. With `COc1ccccc1OCCNc1cc(N2CCOCC2)ccc1[N+](=O)[O-]` the activity change, negative = inhibition was inconclusive: -18%. In the case of `CCOC(=O)CSC1=C(C#N)C(c2sccc2C)CC(=O)N1` (stereo not drawn), the Potency is reported as inconclusive: 20 µM [falling, partial curve]. In the case of `CS(=O)(=O)c1ccc(C(=O)OCC(=O)Nc2cccc(S(=O)(=O)N3CCCC3)c2)cc1`, the “activity change, negative = inhibition” value is reported as inactive: -1.35%. For `CN(CCOC(=O)c1ccc2c(c1)OCCO2)C(C)(C)C`, the Potency was inconclusive: 20.6 µM [falling, single point]. With `COc1ccc(C(=O)OCc2c(F)cccc2Cl)cc1S(=O)(=O)N1CCOCC1` the activity change, negative = inhibition was inconclusive: 0.112%. In the case of `N#C/C(=C/c1ccc(F)cc1)S(=O)(=O)c1ccccc1`, the activity change, negative = inhibition is reported as inconclusive: -8.38%. With `N#CC1=C2SCC(O)(c3ccccc3)N2C(=O)CC1c1ccccc1` (stereo not drawn) the Potency was inconclusive: 15.8 µM [falling, single point]. In the case of `CCOc1ccc2[nH]c(=O)c(C(c3nnnn3C3CCCCC3)N3CCN(C)CC3)cc2c1` (stereo not drawn), the “activity change, negative = inhibition” value is reported as inactive: 2.92%. With `N#C/C(=C\c1ccc(F)c(Br)c1)C(=O)NC1CC1` the activity change, negative = inhibition was inconclusive: 11.1%. For `CCOC(=O)c1cc(-c2ccc3c(c2)OCCO3)n[nH]1`, the Potency was inconclusive: 35.5 µM [falling, single point]. For `COc1ccc(C2=NN(C(=O)c3cccs3)C(c3ccccc3O)C2)cc1` (stereo not drawn), the activity change, negative = inhibition was inconclusive: 17%. In the case of `C=C(C)Cn1c(SCC#N)nc2ccccc2c1=O`, the “activity change, negative = inhibition” value is reported as inactive: 8.56%. In the case of `CCN(Cc1ccccc1)S(=O)(=O)c1ccc(OC)c2ncccc12`, the Potency is reported as inconclusive: 35.5 µM [falling, single point]. For `Cc1c(Br)c([N+](=O)[O-])nn1CC(=O)Nc1ccc(CC#N)cc1`, the Potency was inconclusive: 11.2 µM [falling, partial curve, poor fit]. In the case of `COCCCNC(=O)c1cccs1`, the “activity change, negative = inhibition” value is reported as inactive: -10.4%. For `CCCc1nnc(NC(=O)Cn2c(=O)oc3ccccc32)s1`, the “activity change, negative = inhibition” value was inactive: -7.59%. In the case of `O=C(NCc1ccco1)C12CN(Cc3ccccc3)CC1C(c1ccc([N+](=O)[O-])cc1)=NO2` (stereo not drawn), the Potency is reported as inconclusive: 14.1 µM [rising, partial curve, poor fit]. With `Cc1cccc(C(=O)N[C@H](C(=O)Nc2ccc(C)c(S(=O)(=O)N(C)C)c2)C(C)C)c1` the activity change, negative = inhibition was inconclusive: 2.47%. For `Cc1ccc(S(=O)(=O)N2CCN(C(=O)CSc3nc4ccccc4o3)C2)cc1`, the activity change, negative = inhibition was inconclusive: -0.0503%. In the case of `O=C(Nc1nccs1)c1cc(S(=O)(=O)N2CCOCC2)ccc1Cl`, the activity change, negative = inhibition is reported as inconclusive: -12.7%. In the case of `CCn1nc(C)c(CN2CCC(C(=O)Nc3cccc(-c4cccc(Cl)c4)c3)CC2)c1C`, the Potency is reported as inconclusive: 35.5 µM [falling, single point]. For `COc1cc(/C=C2\CCC/C(=C\c3ccc(O)c(OC)c3)C2=O)ccc1O`, the Potency was inconclusive: 11.2 µM [falling, partial curve]. With `O=C(CSc1ncccc1-c1nc2ccccc2[nH]1)N1CCc2ccccc21` the Potency was inconclusive: 29.1 µM [rising, single point]. In the case of `N#CC(C#N)=C(Nc1ccc(F)cc1)SCc1cccc(F)c1`, the activity change, negative = inhibition is reported as inconclusive: -10.9%. With `COc1ccccc1-n1c(SCC(=O)N2CCCCC2)nc(O)c(Cc2ccccc2)c1=O` the activity change, negative = inhibition was inconclusive: -1.05%. With `O=C(CCl)N1CCCC1c1ccc2c(c1)OCCO2` (stereo not drawn) the Potency was inconclusive: 35.5 µM [falling, single point].
